PubChem BioAssay AID743121 | NCATS – 2013
Purpose: 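Knock-downs that sensitise breast cancer cells to camptothecin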 (primary screen). System: MDA-MB-231 cells, a human breast cancer line. Knock-down reagent: single siRNA against human genes, 20 nM siRNA (0.8 pmol per well). Timing: 120 h (drug added 48 h after transfection, read 72 h later). Challenge: camptothecin 20 nM (about EC30) for 72 h; vehicle 0.1% DMSO in parallel plates. Measurement: 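Cell viability by ATP luminescence (CellTiter-Glo) as % of non-targeting siRNA wells, and the log2 ratio of viability without drug over viability with camptothecin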. Scale: log2 vehicle/camptothecin viability: higher = stronger sensitisation to camptothecin; viability with camptothecin and viability without drug: higher = more viable cells. Call rule: 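Active genes have an RSA gene-level p-value below 0.001, computed from the ratios of their separate siRNAs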.
Shown is a random part of about 26,000 reagents. In the full data, 167 (0.63%) are marked active. 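Calls are per gene from RSA p-values that are not deposited; an individual active-marked siRNA can sensitise only weakly.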 A number with no mark means an inactive call. Reagents against one gene are numbered here.

target gene	reagent no.	log2 vehicle/camptothecin viability	viability with camptothecin (% of control)	viability without drug (% of control)
SLC1A5	1	0.129	94.1	103
SLC1A5	2	-0.208	75.3	65.2
SLC1A5	3	-0.439	106	78
DUS1L (dihydrouridine synthase 1 like)	1	0.0109	79.3	80
DUS1L (dihydrouridine synthase 1 like)	2	-0.204	73.3	63.6
DUS1L (dihydrouridine synthase 1 like)	3	-0.0453	77.5	75.1
DUS1L (dihydrouridine synthase 1 like)	4	-0.117	73.2	67.5
IPO7 (importin 7)	1	-0.389	84.1	64.2
IPO7 (importin 7)	2	-0.444	83.7	61.5
IPO7 (importin 7)	3	0.277	36.8	44.6
SCN2A (sodium voltage-gated channel alpha subunit 2)	1	-0.226	77.4	66.1
SCN2A (sodium voltage-gated channel alpha subunit 2)	2	-0.11	66.8	61.9
SCN2A (sodium voltage-gated channel alpha subunit 2)	3	-0.176	122	108
MPIG6B (megakaryocyte and platelet inhibitory receptor G6b)	1	0.121	13.3	14.5
MPIG6B (megakaryocyte and platelet inhibitory receptor G6b)	2	-0.133	55.9	51
MPIG6B (megakaryocyte and platelet inhibitory receptor G6b)	3	-0.14	66.4	60.3
MPIG6B (megakaryocyte and platelet inhibitory receptor G6b)	4	-0.555	57.4	39
POMK (protein O-mannose kinase)	1	-0.481	70.3	50.3
POMK (protein O-mannose kinase)	2	-0.0327	114	111
POMK (protein O-mannose kinase)	3	-0.379	60.1	46.2
POMK (protein O-mannose kinase)	4	-0.577	31.5	21.1
OSGEP (O-sialoglycoprotein endopeptidase)	1	-0.0364	109	107
OSGEP (O-sialoglycoprotein endopeptidase)	2	0.309	24.4	30.2
OSGEP (O-sialoglycoprotein endopeptidase)	3	-0.469	60.1	43.5
OSGEP (O-sialoglycoprotein endopeptidase)	4	-0.508	84.5	59.4
FOXE1 (forkhead box E1)	1	-0.174	97.4	86.4
FOXE1 (forkhead box E1)	2	-0.525	89.4	62.2
FOXE1 (forkhead box E1)	3	-0.131	105	95.8
FOXE1 (forkhead box E1)	4	0.169	88.3	99.2
WHR1 (winged helix repair factor 1)	1	-0.53	137	94.8
WHR1 (winged helix repair factor 1)	2	-0.372	92.7	71.7
WHR1 (winged helix repair factor 1)	3	-0.317	111	89.1
WHR1 (winged helix repair factor 1)	4	0.455	49.3	67.6
MTF2 (metal response element binding transcription factor 2)	1	-0.232	75.7	64.4
MTF2 (metal response element binding transcription factor 2)	2	-0.181	97	85.6
MTF2 (metal response element binding transcription factor 2)	3	-0.513	131	91.7
MTF2 (metal response element binding transcription factor 2)	4	-0.266	110	91.8
UBASH3B (ubiquitin associated and SH3 domain containing B)	1	-0.097	106	99.5
UBASH3B (ubiquitin associated and SH3 domain containing B)	2	0.179	101	114
UBASH3B (ubiquitin associated and SH3 domain containing B)	3	0.104	89.9	96.6
CRHR2 (corticotropin releasing hormone receptor 2)	1	0.0875	61.1	65
CRHR2 (corticotropin releasing hormone receptor 2)	2	-0.0501	59	57
CRHR2 (corticotropin releasing hormone receptor 2)	3	-0.52	96.1	67
CRHR2 (corticotropin releasing hormone receptor 2)	4	0.224	64.8	75.7
PPP1R1A (protein phosphatase 1 regulatory inhibitor subunit 1A)	1	0.0275	84	85.6
PPP1R1A (protein phosphatase 1 regulatory inhibitor subunit 1A)	2	0.14	70.7	78
PPP1R1A (protein phosphatase 1 regulatory inhibitor subunit 1A)	3	-0.212	89.2	77
PPP1R1A (protein phosphatase 1 regulatory inhibitor subunit 1A)	4	-0.0796	87.5	82.8

Already shown: an excerpt of the list.
target gene	reagent no.	log2 vehicle/camptothecin viability	viability with camptothecin (% of control)	viability without drug (% of control)
MPIG6B (megakaryocyte and platelet inhibitory receptor G6b)	4	-0.555	57.4	39
POMK (protein O-mannose kinase)	1	-0.481	70.3	50.3
POMK (protein O-mannose kinase)	2	-0.0327	114	111
POMK (protein O-mannose kinase)	3	-0.379	60.1	46.2
POMK (protein O-mannose kinase)	4	-0.577	31.5	21.1
OSGEP (O-sialoglycoprotein endopeptidase)	1	-0.0364	109	107
OSGEP (O-sialoglycoprotein endopeptidase)	2	0.309	24.4	30.2
